The target in this assay is T1, IFITM-2 (Interferon-Induced Transmembrane Protein 2) (mouse (endogenous in J774.A1)) (UniProt Q99J93).
T1 sequence: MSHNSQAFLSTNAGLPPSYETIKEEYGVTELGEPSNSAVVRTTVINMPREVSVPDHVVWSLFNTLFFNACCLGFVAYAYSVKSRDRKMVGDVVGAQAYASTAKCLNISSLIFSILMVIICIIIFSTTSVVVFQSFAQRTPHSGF
Kind of assay: co-IP; J774.A1 macrophages incubated with His-tagged rBAG3; plasma membrane complexes extracted natively with 1% CALX173ACE; immuno-affinity chromatography on anti-IFITM-2 agarose resin; rBAG3 monitored by western blot; macrophages not incubated with rBAG3 as negative control; only the binder purified. Background: Immunoblotting shows a protein as a band on a membrane.

Chains of the proteins cited; added tags and fusions are not shown.
UniProt O95817: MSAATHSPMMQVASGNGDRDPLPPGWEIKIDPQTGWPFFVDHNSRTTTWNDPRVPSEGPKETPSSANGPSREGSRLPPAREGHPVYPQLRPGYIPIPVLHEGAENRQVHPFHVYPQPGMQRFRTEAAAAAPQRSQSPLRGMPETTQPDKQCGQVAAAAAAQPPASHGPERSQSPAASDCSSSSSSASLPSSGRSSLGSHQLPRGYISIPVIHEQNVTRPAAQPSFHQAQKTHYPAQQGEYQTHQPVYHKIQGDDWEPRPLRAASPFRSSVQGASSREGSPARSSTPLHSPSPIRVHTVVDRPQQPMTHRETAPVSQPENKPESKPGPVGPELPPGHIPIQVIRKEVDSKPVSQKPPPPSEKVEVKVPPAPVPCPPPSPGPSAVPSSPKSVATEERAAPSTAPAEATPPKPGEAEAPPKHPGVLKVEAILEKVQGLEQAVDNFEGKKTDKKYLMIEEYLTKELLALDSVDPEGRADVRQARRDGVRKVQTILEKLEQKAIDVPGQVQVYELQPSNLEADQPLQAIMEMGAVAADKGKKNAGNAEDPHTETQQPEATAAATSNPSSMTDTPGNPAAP

These are yes or no findings as the source states them, for the method shown. Binding seen in cells or lysates may run through a third protein. Some results given as binding are weak or reduced against the parent protein; the word gives no strength.

Regarding “His-tagged recombinant BAG3 (Bcl-2-associated athanogene 3) (from UniProt O95817 1-575)”, the binding result is “binds”.

These data come from PMC4659838.
